{"sequences": {"note": "Protein sequences, listed by entry. Tags and fused reporters are not part of them.", "UniProt P63330, whole entry": "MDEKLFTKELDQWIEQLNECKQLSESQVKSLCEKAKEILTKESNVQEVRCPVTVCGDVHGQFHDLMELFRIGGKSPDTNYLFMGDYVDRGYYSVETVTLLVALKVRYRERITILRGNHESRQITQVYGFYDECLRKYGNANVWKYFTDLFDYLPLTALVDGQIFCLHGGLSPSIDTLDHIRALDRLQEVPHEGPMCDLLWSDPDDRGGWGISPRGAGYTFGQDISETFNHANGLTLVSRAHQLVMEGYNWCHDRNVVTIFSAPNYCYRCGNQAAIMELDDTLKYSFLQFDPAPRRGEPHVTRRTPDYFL"}, "source": "patent US8957184B2", "about": "“Pro-apoptotic peptides” (priority 2009, dated 2015)", "key": {"TS1αβ cells": {"system": "TS1αβ cells", "test": "Cell death assay (Annexin V/PI flow cytometry), TS1αβ", "type": "cell-based, murine", "conditions": "150 μM peptide"}, "PP2Ac": {"target": "T1, PP2Ac (Mus musculus, UniProt P63330)", "T1 construct": "10^7 exponentially growing TS1αβ cells were first washed twice with PBS and then lysed 10 minutes on ice; endogenous in cells; host or cells: TS1αβ murine T cell line (IL-2-stimulated), cell lysate", "test": "Pull down assay of biotinylated peptides with TS1αβ cell extracts, immunoblot for PP2Ac", "type": "binding, murine", "conditions": "extracts from IL-2-stimulated TS1αβ cells; FIG. 1"}, "[1]": {"system": "primary B cells from CLL patients", "test": "Effect of DPT-C9h on PBMC: B cells from CLL patients (annexin staining)", "type": "cell-based, human", "conditions": "150 μM, 3 h, FIGS. 4 and 5", "procedure": "PBMC (Peripheral Blood Mononuclear Cell) were isolated by Ficoll gradient centrifugation from healthy donors and CLL patients, cultured in complete RPMI medium and treated with 150 μM of DPT-C9h peptide. Upon 3 h of treatment, cells were washed and resuspended in complete RPMI medium. Apoptosis was estimated 6 h after washing using Annexin staining and specific markers for B cells (FIG. 4A), and for T, NK and monocytes (FIG. 4B). Apoptosis is represented as the percentage compared to cells treated with […].\nPBMC were isolated by Ficoll gradient centrifugation from healthy donors and three different types of CLL patients: treated, non-treated and resistant. Cells were maintained in complete RPMI medium, treated with 150 μM of DPT-C9h peptide for 3 h and then washed and transferred to complete medium. Samples were analyzed at different times after washing. Apoptosis was estimated by annexin staining. The different populations were selected using specific markers. Apoptosis is represented as percentage compared to control non treated cells.\nMononuclear cells isolated from peripheral blood (PBMC) were prepared by Ficoll gradient centrifugation.\nA total of 2.5×10^5 cells were washed with ice-cold PBS, diluted in ice-cold binding buffer and stained with annexin and propidium iodide (PI). Samples were maintained on ice for 10 min in the dark and then analyzed by flow cytometry."}, "Jurkat": {"system": "Jurkat", "test": "Cell death assay (Annexin V/PI flow cytometry), Jurkat", "type": "cell-based, human", "conditions": "150 μM for 4 h, FIG. 3"}, "[2]": {"system": "cell lines isolated from in vivo human xenografts of breast cancer", "test": "Effect of DPT-C9h on breast cancer cells isolated from human xenografts", "type": "cell-based", "conditions": "150 μM for 3 h; FIG. 8"}, "human monocytes": {"system": "human monocytes", "test": "Effect of DPT-C9h on monocytes (annexin staining)", "type": "cell-based"}, "CTLL cell": {"system": "CTLL cell", "test": "Cell death assay (Annexin V/PI flow cytometry), CTLL", "type": "cell-based, murine", "conditions": "150 μM for 4 h, FIG. 3"}, "[3]": {"system": "primary B cells from healthy donors", "test": "Effect of DPT-C9h on PBMC: B cells from healthy donors (annexin staining)", "type": "cell-based, human", "conditions": "150 μM, 3 h"}, "[4]": {"system": "B cells from CLL patients resistant to classical chemotherapy treatment", "test": "Effect of DPT-C9h on CLL resistant cells (annexin staining)", "type": "cell-based, human", "conditions": "150 μM"}, "[5]": {"system": "bone marrow B cells from CLL patients", "test": "Effect of DPT-C9h on bone marrow cells, CLL patients", "type": "cell-based, human", "conditions": "150 μM"}, "[6]": {"system": "bone marrow B cells from healthy donors", "test": "Effect of DPT-C9h on bone marrow cells, healthy donors", "type": "cell-based, human", "conditions": "150 μM"}, "[7]": {"test": "Stability in culture medium", "type": "physicochemical"}, "[8]": {"system": "breast cancer cell line MCF7", "test": "Effect of DPT-C9h on breast cancer cell line MCF7", "type": "cell-based, human", "conditions": "MCF7, 150 μM for 3 h; FIG. 8"}, "HeLa": {"system": "HeLa", "test": "Cell death assay (Annexin V/PI flow cytometry), HeLa", "type": "cell-based, human", "conditions": "150 μM for 4 h, FIG. 3"}, "Daudi": {"system": "Daudi", "test": "Cell death assay (Annexin V/PI flow cytometry), Daudi", "type": "cell-based, human", "conditions": "150 μM for 4 h, FIG. 3"}, "human NK cells": {"system": "human NK cells", "test": "Effect of DPT-C9h on NK cells (annexin staining)", "type": "cell-based"}, "human T cells": {"system": "human T cells", "test": "Effect of DPT-C9h on T cells (annexin staining)", "type": "cell-based"}}, "note": "Not every detail of the peptide structures is certain; ends, links or a residue may be inferred. Ends that are not written are not given here."}
{"sequence": "VKKKKIKREIKILDESRAWQELIGDLTEIY [DPT-C9r, VKKKKIKREIKI-LDESRAWQELIGDLTEIY]", "values": [{"measurement": "apoptosis / cell death (in words)", "setting": "TS1αβ cells", "result": "negative control"}, {"measurement": "interaction with PP2Ac (pull-down)", "setting": "PP2Ac", "result": "do not interact"}]}
{"sequence": "VKKKKIKREIKIYVETLDGIFEQWAHSEDL [DPT-C9h, VKKKKIKREIKI-YVETLDGIFEQWAHSEDL]", "values": [{"measurement": "apoptotic properties", "setting": "[1]", "result": "apoptotic properties"}, {"measurement": "increase of apoptosis", "setting": "Jurkat", "result": 5, "unit": "fold"}, {"measurement": "apoptotic effect", "setting": "[2]", "result": "dramatic apoptotic effect"}, {"measurement": "effect on apoptosis", "setting": "human monocytes; PBMC monocytes, 150 μM, 3 h", "result": "no effect"}, {"measurement": "effect on apoptosis", "setting": "human monocytes; monocytes from chemotherapy-resistant CLL patients", "result": "no effect"}, {"measurement": "effect on apoptosis", "setting": "human monocytes; monocytes, bone marrow of CLL patients and healthy donors", "result": "no effect"}, {"measurement": "cell death (in words)", "setting": "CTLL cell", "result": "unable to cause cell death"}, {"measurement": "apoptosis / cell death (in words)", "setting": "TS1αβ cells", "result": "unable to cause cell death"}, {"measurement": "apoptotic properties", "setting": "[3]", "result": "not from healthy donors"}, {"measurement": "induction of apoptosis", "setting": "[4]", "result": "able to induce apoptosis"}, {"measurement": "apoptotic activity", "setting": "[5]", "result": "apoptotic activity"}, {"measurement": "effect (penetration and apoptosis)", "setting": "[6]", "result": "no effect"}, {"measurement": "stable in culture medium", "setting": "[7]", "result": "at least 18 h"}, {"measurement": "apoptotic effect", "setting": "[8]", "result": "dramatic apoptotic effect"}, {"measurement": "increase of apoptosis", "setting": "HeLa", "result": 5, "unit": "fold"}, {"measurement": "increase of apoptosis", "setting": "Daudi", "result": 5, "unit": "fold"}, {"measurement": "effect on apoptosis", "setting": "human NK cells; NK cells from chemotherapy-resistant CLL patients", "result": "no effect"}, {"measurement": "effect on apoptosis", "setting": "human NK cells; NK cells, bone marrow of CLL patients and healthy donors", "result": "no effect"}, {"measurement": "effect on apoptosis", "setting": "human NK cells; PBMC NK cells, 150 μM, 3 h", "result": "no effect"}, {"measurement": "effect on apoptosis", "setting": "human T cells; PBMC T cells, 150 μM, 3 h", "result": "no effect"}, {"measurement": "effect on apoptosis", "setting": "human T cells; T cells from chemotherapy-resistant CLL patients", "result": "no effect"}, {"measurement": "effect on apoptosis", "setting": "human T cells; T cells, bone marrow of CLL patients and healthy donors", "result": "no effect"}]}
{"sequence": "VKKKKIKREIKI [DPT-sh1, VKKKKIKREIKI]", "values": [{"measurement": "apoptosis / cell death (in words)", "setting": "TS1αβ cells", "result": "negative control"}, {"measurement": "interaction with PP2Ac (pull-down)", "setting": "PP2Ac", "result": "do not interact"}]}
